Some of the results follow.
What was measured:
Assay in all cases: glycan array binding signal (z-score within array); higher = stronger binding
Details in all cases: glycan notation: IUPAC condensed, linker removed
[1] = molecular target: Gal(b1-3)GalNAc(b1-3)Gal(a1-4)Gal(b1-4)Glc
Method in brief: (§1)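 Glycan array data were curated from 3228 arrays in the Consortium for Functional Glycomics database and kept only where the protein sequence was available. Glycan names were converted to IUPAC-condensed notation, and columns mapping to the same glycan were averaged. The binding signal is a within-array Z-score, averaged across arrays of the same protein sequence at different concentrations or buffers and across linkers. Negative Z-scores can be read as non-binding.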

[2] = molecular target: Gal(b1-3)GalNAc(b1-4)Gal(b1-4)Glc
Method in brief: as §1

[3] = molecular target: Gal(b1-3)GalNAc(b1-4)[Neu5Ac(a2-3)]Gal(b1-4)Glc
Method in brief: as §1

Gal(b1-3)GlcNAc = molecular target: Gal(b1-3)GlcNAc
Method in brief: as §1

[4] = molecular target: Gal(b1-3)GlcNAc(a1-3)Gal(b1-4)GlcNAc
Method in brief: as §1

[5] = molecular target: Gal(b1-3)GlcNAc(a1-6)Gal(b1-4)GlcNAc
Method in brief: as §1

Gal(b1-3)GlcNAc(b1-2)Man = molecular target: Gal(b1-3)GlcNAc(b1-2)Man
Method in brief: as §1

[6] = molecular target: Gal(b1-3)GlcNAc(b1-2)Man(a1-3)[Gal(b1-3)GlcNAc(b1-2)Man(a1-6)]Man(b1-4)GlcNAc(b1-4)GlcNAc
Method in brief: as §1

[7] = molecular target: Gal(b1-3)GlcNAc(b1-2)Man(a1-3)[Gal(b1-3)GlcNAc(b1-2)Man(a1-6)]Man(b1-4)GlcNAc(b1-4)[Fuc(a1-6)]GlcNAc
Method in brief: as §1

[8] = molecular target: Gal(b1-3)GlcNAc(b1-2)Man(a1-3)[GlcNAc(b1-4)][Gal(b1-3)GlcNAc(b1-2)Man(a1-6)]Man(b1-4)GlcNAc(b1-4)GlcNAc
Method in brief: as §1

[9] = molecular target: Gal(b1-3)GlcNAc(b1-2)[Gal(b1-3)GlcNAc(b1-6)]Man(a1-6)[Gal(b1-3)GlcNAc(b1-2)Man(a1-3)]Man(b1-4)GlcNAc(b1-4)GlcNAc
Method in brief: as §1

[10] = molecular target: Gal(b1-3)GlcNAc(b1-3)Gal(b1-3)GlcNAc
Method in brief: as §1

[11] = molecular target: Gal(b1-3)GlcNAc(b1-3)Gal(b1-4)Glc
Method in brief: as §1

[12] = molecular target: Gal(b1-3)GlcNAc(b1-3)Gal(b1-4)GlcNAc
Method in brief: as §1

[13] = molecular target: Gal(b1-3)GlcNAc(b1-3)Gal(b1-4)GlcNAc(b1-2)Man(a1-3)[Gal(b1-3)GlcNAc(b1-3)Gal(b1-4)GlcNAc(b1-2)Man(a1-6)]Man(b1-4)GlcNAc(b1-4)GlcNAc
Method in brief: as §1

[14] = molecular target: Gal(b1-3)GlcNAc(b1-3)Gal(b1-4)GlcNAc(b1-2)[Gal(b1-3)GlcNAc(b1-3)Gal(b1-4)GlcNAc(b1-6)]Man(a1-6)[Gal(b1-3)GlcNAc(b1-3)Gal(b1-4)GlcNAc(b1-2)Man(a1-3)]Man(b1-4)GlcNAc(b1-4)[Fuc(a1-6)]GlcNAc
Method in brief: as §1

[15] = molecular target: Gal(b1-3)GlcNAc(b1-3)Gal(b1-4)GlcNAc(b1-3)Gal(b1-4)GlcNAc(b1-2)[Gal(b1-3)GlcNAc(b1-3)Gal(b1-4)GlcNAc(b1-3)Gal(b1-4)GlcNAc(b1-6)]Man(a1-6)[Gal(b1-3)GlcNAc(b1-3)Gal(b1-4)GlcNAc(b1-3)Gal(b1-4)GlcNAc(b1-2)Man(a1-3)]Man(b1-4)GlcNAc(b1-4)[Fuc(a1-6)]GlcNAc
Method in brief: as §1

[16] = molecular target: Gal(b1-3)GlcNAc(b1-3)Gal(b1-4)GlcNAc(b1-6)[Gal(b1-3)GlcNAc(b1-3)]Gal(b1-4)Glc
Method in brief: as §1

[17] = molecular target: Gal(b1-3)GlcNAc(b1-3)Gal(b1-4)[Fuc(a1-3)]GlcNAc
Method in brief: as §1

[18] = molecular target: Gal(b1-3)GlcNAc(b1-3)Gal(b1-4)[Fuc(a1-3)]GlcNAc(b1-6)[Gal(b1-3)GlcNAc(b1-3)]Gal(b1-4)Glc
Method in brief: as §1

[19] = molecular target: Gal(b1-3)GlcNAc(b1-3)GalNAc
Method in brief: as §1

[20] = molecular target: Gal(b1-3)GlcNAc(b1-6)Gal(b1-4)GlcNAc
Method in brief: as §1

[21] = molecular target: Gal(b1-3)GlcNAc(b1-6)GalNAc
Method in brief: as §1

[22] = molecular target: Gal(b1-3)GlcNAc(b1-6)[Gal(b1-3)]GalNAc
Method in brief: as §1

Gal(b1-3)GlcNAc6S = molecular target: Gal(b1-3)GlcNAc6S
Method in brief: as §1

[23] = molecular target: Gal(b1-3)[Fuc(a1-4)]GlcNAc
Method in brief: as §1

[24] = molecular target: Gal(b1-3)[Fuc(a1-4)]GlcNAc(b1-2)Man
Method in brief: as §1

[25] = molecular target: Gal(b1-3)[Fuc(a1-4)]GlcNAc(b1-2)Man(a1-3)[Gal(b1-3)[Fuc(a1-4)]GlcNAc(b1-2)Man(a1-6)]Man(b1-4)GlcNAc(b1-4)[Fuc(a1-6)]GlcNAc
Method in brief: as §1

[26] = molecular target: Gal(b1-3)[Fuc(a1-4)]GlcNAc(b1-3)Gal(b1-3)[Fuc(a1-4)]GlcNAc
Method in brief: as §1

[27] = molecular target: Gal(b1-3)[Fuc(a1-4)]GlcNAc(b1-3)Gal(b1-4)[Fuc(a1-3)]GlcNAc
Method in brief: as §1

[28] = molecular target: Gal(b1-3)[Fuc(a1-4)]GlcNAc(b1-6)GalNAc
Method in brief: as §1

[29] = molecular target: Gal(b1-3)[GlcNAc(b1-6)]GalNAc
Method in brief: as §1

[30] = molecular target: Gal(b1-3)[Neu5Ac(a2-6)]GalNAc
Method in brief: as §1

[31] = molecular target: Gal(b1-3)[Neu5Ac(a2-6)]GlcNAc(b1-4)Gal(b1-4)Glc
Method in brief: as §1

[32] = molecular target: Gal(b1-3)[Neu5Ac(b2-6)]GalNAc
Method in brief: as §1

Gal(b1-4)Gal = molecular target: Gal(b1-4)Gal
Method in brief: as §1

[33] = molecular target: Gal(b1-4)GalNAc(a1-3)[Fuc(a1-2)]Gal(b1-4)GlcNAc
Method in brief: as §1

[34] = molecular target: Gal(b1-4)GalNAc(b1-3)[Fuc(a1-2)]Gal(b1-4)GlcNAc
Method in brief: as §1

B1: Mnn9-2N3 (Aspergillus fumigatus) (protein)
chain: MAVARRMRRTNPITLLLAAILAIGFFIFVLSPSTTSASPVKAGSASSSSTSQQRREDNAAENPLSPPTKPFFKSQPVRHDGQQAPPPVVQYNLNQLSSTSTSAANGERILILTPMARFVPEYWDNVVKLTYPHELISIGFIIPKNKEGNAALAALEAAIAKTQSGPIDKRFASISILRQDFEPPLQSQDEKERHKISNQKARRESMSRARNSLLFTTLGPATAWVLWLDADIVETPPTLIQDLTAHDHPVLVPNCYQRYYNSEKKKMDVRPYDYNSWIDSSTAQSMAAEMGPDEILLEGYAEMPTYRTLMAHLADTANPNPKKVIELDGVGGTALMVKAEVHRDGAMFPAFPFYHLVETEGFAKMAKRLGYSVYGLPDYFVSRNFFFFFFFFFFG
**Q.** For B1, which “glycan array binding signal (z-score)” value [1] is on record?
**A.** -1.83

**Q.** What about the “glycan array binding signal (z-score)” value [2] of the same binder?
**A.** -1.14

**Q.** What about the “glycan array binding signal (z-score)” value [3] of the same binder?
**A.** 0.109

**Q.** What about the “glycan array binding signal (z-score)” value (Gal(b1-3)GlcNAc) of the same binder?
**A.** 0.408

**Q.** And the “glycan array binding signal (z-score)” value [4]?
**A.** -0.844

**Q.** What about the “glycan array binding signal (z-score)” value [5] of the same binder?
**A.** -0.013

**Q.** What about the “glycan array binding signal (z-score)” value (Gal(b1-3)GlcNAc(b1-2)Man) of the same binder?
**A.** -0.115

**Q.** And the “glycan array binding signal (z-score)” value [6]?
**A.** -0.154

**Q.** What about the “glycan array binding signal (z-score)” value [7] of the same binder?
**A.** -0.497

**Q.** What about the “glycan array binding signal (z-score)” value [8] of the same binder?
**A.** 0.004

**Q.** And the “glycan array binding signal (z-score)” value [9]?
**A.** -0.176

**Q.** What about the “glycan array binding signal (z-score)” value [10] of the same binder?
**A.** -0.486

**Q.** What about the “glycan array binding signal (z-score)” value [11] of the same binder?
**A.** 1.12

**Q.** What about the “glycan array binding signal (z-score)” value [12] of the same binder?
**A.** 2.26

**Q.** What about the “glycan array binding signal (z-score)” value [13] of the same binder?
**A.** 2.02

**Q.** What about the “glycan array binding signal (z-score)” value [14] of the same binder?
**A.** 0.414

**Q.** And the “glycan array binding signal (z-score)” value [15]?
**A.** 0.404

**Q.** And the “glycan array binding signal (z-score)” value [16]?
**A.** -0.057

**Q.** And the “glycan array binding signal (z-score)” value [17]?
**A.** 0.699

**Q.** What about the “glycan array binding signal (z-score)” value [18] of the same binder?
**A.** -1.63

**Q.** And the “glycan array binding signal (z-score)” value [19]?
**A.** -0.408

**Q.** What about the “glycan array binding signal (z-score)” value [20] of the same binder?
**A.** 0.028

**Q.** And the “glycan array binding signal (z-score)” value [21]?
**A.** -0.101

**Q.** What about the “glycan array binding signal (z-score)” value [22] of the same binder?
**A.** -0.321

**Q.** What about the “glycan array binding signal (z-score)” value (Gal(b1-3)GlcNAc6S) of the same binder?
**A.** -1.56

**Q.** What about the “glycan array binding signal (z-score)” value [23] of the same binder?
**A.** 0.017

**Q.** What about the “glycan array binding signal (z-score)” value [24] of the same binder?
**A.** -0.445

**Q.** And the “glycan array binding signal (z-score)” value [25]?
**A.** -0.841

**Q.** And the “glycan array binding signal (z-score)” value [26]?
**A.** 1.35

**Q.** What about the “glycan array binding signal (z-score)” value [27] of the same binder?
**A.** 0.195

**Q.** And the “glycan array binding signal (z-score)” value [28]?
**A.** 0.109

**Q.** And the “glycan array binding signal (z-score)” value [29]?
**A.** 0.28

**Q.** What about the “glycan array binding signal (z-score)” value [30] of the same binder?
**A.** 0.71

**Q.** What about the “glycan array binding signal (z-score)” value [31] of the same binder?
**A.** 0.073

**Q.** What about the “glycan array binding signal (z-score)” value [32] of the same binder?
**A.** 0.319

**Q.** What about the “glycan array binding signal (z-score)” value (Gal(b1-4)Gal) of the same binder?
**A.** -0.437

**Q.** And the “glycan array binding signal (z-score)” value [33]?
**A.** 0.14

**Q.** And the “glycan array binding signal (z-score)” value [34]?
**A.** 0.347
